No constants are given. Whether binding was seen depends on the method and setting. A result given as binding can be weak or reduced; the word gives no strength. For part of these data: Binding seen in cells or lysates may run through a third protein. For part of these data: Sequences can lack the tags named with a protein.
Tests used:
[1] = biological target: T1, Flag-tagged KIF20A, full length (mouse) (UniProt P97329); assay: co-IP; plasmids co-transfected into HEK293 cells; lysis buffer 10 mM Tris-HCl pH 7.5, 150 mM NaCl, 1% NP40, 1 mM EDTA, 1 mM DTT; Flag or Myc antibody 1 µg/ml, magnetic protein G beads; western blot
T1 sequence: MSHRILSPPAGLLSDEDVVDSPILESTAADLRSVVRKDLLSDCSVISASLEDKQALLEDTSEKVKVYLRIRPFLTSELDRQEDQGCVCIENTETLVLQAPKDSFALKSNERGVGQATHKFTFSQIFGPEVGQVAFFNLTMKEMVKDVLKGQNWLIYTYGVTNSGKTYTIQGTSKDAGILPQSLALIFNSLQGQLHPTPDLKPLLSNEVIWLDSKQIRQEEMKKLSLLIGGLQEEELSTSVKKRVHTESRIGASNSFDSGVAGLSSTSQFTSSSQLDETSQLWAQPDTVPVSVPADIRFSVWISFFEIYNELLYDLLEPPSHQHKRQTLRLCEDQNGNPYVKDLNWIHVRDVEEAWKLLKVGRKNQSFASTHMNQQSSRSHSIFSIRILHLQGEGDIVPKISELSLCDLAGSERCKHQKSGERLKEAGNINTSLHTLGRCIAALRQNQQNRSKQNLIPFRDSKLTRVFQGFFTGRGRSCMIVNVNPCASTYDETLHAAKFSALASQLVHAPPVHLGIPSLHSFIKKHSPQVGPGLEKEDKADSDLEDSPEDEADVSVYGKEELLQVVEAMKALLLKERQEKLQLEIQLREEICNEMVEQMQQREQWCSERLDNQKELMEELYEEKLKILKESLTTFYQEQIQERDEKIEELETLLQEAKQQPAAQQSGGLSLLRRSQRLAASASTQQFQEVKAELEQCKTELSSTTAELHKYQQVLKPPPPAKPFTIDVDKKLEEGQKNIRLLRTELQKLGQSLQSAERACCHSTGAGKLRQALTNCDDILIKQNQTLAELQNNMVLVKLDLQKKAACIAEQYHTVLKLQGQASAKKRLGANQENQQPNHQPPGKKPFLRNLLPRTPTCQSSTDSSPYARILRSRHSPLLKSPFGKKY

[2] = biological target: full-length PDZ-RGS3 (two-hybrid bait); assay: two-hybrid; mouse E9.5/10.5 embryonic two-hybrid cDNA library screened with full-length PDZ-RGS3 and with the RGS domain alone as baits; 20 million yeast cells with each bait
[3] = biological target: myc-tagged PDZ-RGS3, full length; assay: co-IP; plasmids co-transfected into HEK293 cells; lysis buffer 10 mM Tris-HCl pH 7.5, 150 mM NaCl, 1% NP40, 1 mM EDTA, 1 mM DTT; Flag or Myc antibody 1 µg/ml, magnetic protein G beads; western blot

myc-tagged PDZ-RGS3, full length
binding [1]: binds

B1: KIF20A fragment, amino acids 625 to 818 (two-hybrid prey) (domain or fragment, UniProt P97329 625-818)
chain: LKILKESLTTFYQEQIQERDEKIEELETLLQEAKQQPAAQQSGGLSLLRRSQRLAASASTQQFQEVKAELEQCKTELSSTTAELHKYQQVLKPPPPAKPFTIDVDKKLEEGQKNIRLLRTELQKLGQSLQSAERACCHSTGAGKLRQALTNCDDILIKQNQTLAELQNNMVLVKLDLQKKAACIAEQYHTVLKL
binding [2]: binds

B2: Flag-tagged KIF20A, full length (protein, UniProt P97329 1-887)
chain: MSHRILSPPAGLLSDEDVVDSPILESTAADLRSVVRKDLLSDCSVISASLEDKQALLEDTSEKVKVYLRIRPFLTSELDRQEDQGCVCIENTETLVLQAPKDSFALKSNERGVGQATHKFTFSQIFGPEVGQVAFFNLTMKEMVKDVLKGQNWLIYTYGVTNSGKTYTIQGTSKDAGILPQSLALIFNSLQGQLHPTPDLKPLLSNEVIWLDSKQIRQEEMKKLSLLIGGLQEEELSTSVKKRVHTESRIGASNSFDSGVAGLSSTSQFTSSSQLDETSQLWAQPDTVPVSVPADIRFSVWISFFEIYNELLYDLLEPPSHQHKRQTLRLCEDQNGNPYVKDLNWIHVRDVEEAWKLLKVGRKNQSFASTHMNQQSSRSHSIFSIRILHLQGEGDIVPKISELSLCDLAGSERCKHQKSGERLKEAGNINTSLHTLGRCIAALRQNQQNRSKQNLIPFRDSKLTRVFQGFFTGRGRSCMIVNVNPCASTYDETLHAAKFSALASQLVHAPPVHLGIPSLHSFIKKHSPQVGPGLEKEDKADSDLEDSPEDEADVSVYGKEELLQVVEAMKALLLKERQEKLQLEIQLREEICNEMVEQMQQREQWCSERLDNQKELMEELYEEKLKILKESLTTFYQEQIQERDEKIEELETLLQEAKQQPAAQQSGGLSLLRRSQRLAASASTQQFQEVKAELEQCKTELSSTTAELHKYQQVLKPPPPAKPFTIDVDKKLEEGQKNIRLLRTELQKLGQSLQSAERACCHSTGAGKLRQALTNCDDILIKQNQTLAELQNNMVLVKLDLQKKAACIAEQYHTVLKLQGQASAKKRLGANQENQQPNHQPPGKKPFLRNLLPRTPTCQSSTDSSPYARILRSRHSPLLKSPFGKKY
binding [3]: binds
